Measurements as given in patent publication US11351229B2, “Combination therapies for treating infantile spasms and other treatment resistant epilepsies” (Baylor College of Medicine, priority 2017, dated 2022).
Part of at least one peptide drawing is inferred or uncertain, most often the ends.

By UniProt entry, the sequences of proteins in these tests, tags left out. Residues count along the entry.
UniProt Q60751, 742-1373 limits assumed: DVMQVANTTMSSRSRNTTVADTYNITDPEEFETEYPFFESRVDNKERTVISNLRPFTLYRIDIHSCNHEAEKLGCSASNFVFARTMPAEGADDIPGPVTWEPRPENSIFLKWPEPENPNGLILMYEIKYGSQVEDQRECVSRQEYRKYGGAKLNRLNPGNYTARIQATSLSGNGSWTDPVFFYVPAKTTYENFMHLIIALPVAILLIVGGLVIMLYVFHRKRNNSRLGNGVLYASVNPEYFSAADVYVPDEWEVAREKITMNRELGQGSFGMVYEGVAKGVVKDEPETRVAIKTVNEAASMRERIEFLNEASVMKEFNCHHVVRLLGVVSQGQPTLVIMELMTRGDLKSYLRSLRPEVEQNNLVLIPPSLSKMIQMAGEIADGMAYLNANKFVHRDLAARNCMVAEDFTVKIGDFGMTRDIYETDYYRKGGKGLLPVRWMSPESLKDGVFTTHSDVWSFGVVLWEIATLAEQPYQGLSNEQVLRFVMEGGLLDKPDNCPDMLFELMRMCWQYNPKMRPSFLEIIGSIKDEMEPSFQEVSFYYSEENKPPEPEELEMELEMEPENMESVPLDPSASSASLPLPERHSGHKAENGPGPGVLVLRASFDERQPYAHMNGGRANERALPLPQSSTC
UniProt Q60751, 31-737 limits assumed: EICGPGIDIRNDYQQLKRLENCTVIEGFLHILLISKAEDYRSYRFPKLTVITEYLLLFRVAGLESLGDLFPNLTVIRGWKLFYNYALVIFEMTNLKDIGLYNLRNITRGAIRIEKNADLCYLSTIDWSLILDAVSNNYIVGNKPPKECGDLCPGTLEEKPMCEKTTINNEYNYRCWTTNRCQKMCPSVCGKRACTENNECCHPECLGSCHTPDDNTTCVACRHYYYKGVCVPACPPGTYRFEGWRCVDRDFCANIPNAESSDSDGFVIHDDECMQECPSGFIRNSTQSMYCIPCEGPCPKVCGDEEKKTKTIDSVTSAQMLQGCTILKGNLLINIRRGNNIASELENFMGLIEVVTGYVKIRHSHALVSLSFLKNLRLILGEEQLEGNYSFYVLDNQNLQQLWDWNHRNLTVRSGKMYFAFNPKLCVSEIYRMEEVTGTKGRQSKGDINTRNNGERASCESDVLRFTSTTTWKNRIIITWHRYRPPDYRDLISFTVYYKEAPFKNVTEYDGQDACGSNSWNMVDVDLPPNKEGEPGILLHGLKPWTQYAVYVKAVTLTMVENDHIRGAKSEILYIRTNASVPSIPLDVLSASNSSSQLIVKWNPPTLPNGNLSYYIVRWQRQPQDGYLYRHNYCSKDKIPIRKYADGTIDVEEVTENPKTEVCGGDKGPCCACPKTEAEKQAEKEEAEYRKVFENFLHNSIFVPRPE

How the values were obtained:
[1] = test system: hypsarrhythmia (abnormal EEG pattern); test: EEG analysis for hypsarrhythmia in rats with spasms; assay type: in vivo, rat; conditions: (1-3)IGF-1; group of 8 rats, pattern present in 6 at baseline
[2] = test system: IGF-1R-PI3K-AKT signaling cascade; test: Western blotting of brain 1 hour after injection (Example 2); assay type: in vivo, rat; conditions: 10 mg/kg (1-3)IGF-1, brains collected 1 hour later
IGF-1R = target: T1, IGF-1R (Mus musculus, UniProt Q60751); test: AKT phosphorylation in neocortex of IGF-1R f/f mice injected with AAV-Cre virus; assay type: in vivo; conditions: treated on P25, tissue punches 2 hours later; >75% reduction in IGF-1R
T1 construct: from tissue; host or cells: mouse neocortex tissue punches (IGF-1R f/f mice, AAV-Cre injected and controls)

[3] = test system: IGF-1R-PI3K-AKT and IGF-1R-Ras-ERK signaling cascades; test: Western blots of IGF-1R signaling in neocortex (Example 9); assay type: in vivo; conditions: control and epileptic groups, 6 weeks old, 2 hours after treatment
Experimental: Briefly, brains were quickly removed from the skull under anesthesia and the cortex dissected free from adhering tissue. It was then snap frozen on dry ice and later homogenized by sonication. Protein concentrations were determined by the BCA assay. Equal quantities of protein (10 μg) from each sample were resolved by polyacrylamide gel electrophoresis. The primary antibodies used were against: pAKT Thr308, pAkt Ser473, pS6 Ser240/244, AKT, S6, IGF-1R. Secondary antibodies were conjugated to horseradish peroxidase and visualization of immunoreactive bands was produced by enhanced chemiluminescence and then exposed to Kodak Biomax film. After digitization, band intensity was quantified with Image J Image software. Blots were also probed with antibodies to GAPDH, which served as a loading control. Band intensity was normalized to control values on the same blot.
The experiments were performed using N=5 for both control and epileptic groups. Animals were 6 weeks old and sacrificed 2 hours after treatment.
Animals (6 weeks old) were treated with 50 mg/kg of PPP or DMSO vehicle. Four hours later, they received 20 mg/kg of (1-3)IGF-1 or vehicle. Two hour later the neocortex was collected.
Vigabatrin (125 mg/kg) was injected 2 and 24 hours before collecting neocortex. Western blots from 2 animals and controls are shown in upper panel (FIG. 25A) for bar graphs n=6. […]

## NCC(=O)N1CCC[C@H]1C(=O)N[C@@H](CCC(=O)O)C(=O)O [(1-3)IGF-1, Gly-Pro-Glu]
[1]
  rats in which hypsarrhythmia was eliminated after treatment: 4
[2]
  activation of pAKT at Thr308 and Ser473 and phosphorylation of S6 at Ser240/244: robust activation
  total AKT and S6: unaltered
IGF-1R
  (1-3)IGF-1-induced AKT phosphorylation after elimination of IGF-1R: prevented AKT phosphorylation
[3]
  engagement of IGF-1R-PI3K-AKT and IGF-1R-Ras-ERK signaling cascades in neocortex: engages
